These are yes or no findings as the source states them, for the method shown. In cells and extracts the contact can be indirect. For some of these results: A result given as binding can be weak or reduced; the word gives no strength. For some of these results: Where a sequence is shown, tags or fusion partners need not be part of it.
Key:
HA-14-3-3γ (human) = target: T1, HA-14-3-3γ (human) (UniProt P61981); assay: co-IP; FLAG-ANO1 and HA-14-3-3γ co-expressed in HEK293T; IP with anti-FLAG and blot with anti-HA, and the opposite combination; 50 mM Tris-HCl pH 7.4, 150 mM NaCl, 5 mM EDTA, 0.1% Triton X-100; overnight at 4 °C
T1 sequence: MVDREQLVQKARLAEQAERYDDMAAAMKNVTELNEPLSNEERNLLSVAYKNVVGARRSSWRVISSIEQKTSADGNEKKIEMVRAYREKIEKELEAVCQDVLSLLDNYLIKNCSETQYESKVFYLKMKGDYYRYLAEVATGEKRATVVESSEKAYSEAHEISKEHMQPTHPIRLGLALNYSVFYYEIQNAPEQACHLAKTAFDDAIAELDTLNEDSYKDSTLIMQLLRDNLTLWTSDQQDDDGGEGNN

FLAG-ANO1 (human) = assay: as above
ANO1-VC (human) = assay: split reporter; BiFC with split Venus (VN173, VC155) in co-transfected HEK293T cells; fixed in 4% PFA; confocal microscopy; DsRed-Mem as plasma membrane marker
VC-ANO1 (human) = assay: as above

FLAG-ANO1 (human)
binding (HA-14-3-3γ (human)): binds

B1: HA-14-3-3γ (protein, UniProt P61981 1-247)
chain: MVDREQLVQKARLAEQAERYDDMAAAMKNVTELNEPLSNEERNLLSVAYKNVVGARRSSWRVISSIEQKTSADGNEKKIEMVRAYREKIEKELEAVCQDVLSLLDNYLIKNCSETQYESKVFYLKMKGDYYRYLAEVATGEKRATVVESSEKAYSEAHEISKEHMQPTHPIRLGLALNYSVFYYEIQNAPEQACHLAKTAFDDAIAELDTLNEDSYKDSTLIMQLLRDNLTLWTSDQQDDDGGEGNN
binding (FLAG-ANO1 (human)): binds

B2: VN-14-3-3γ (protein, UniProt P61981 1-247)
chain: MVDREQLVQKARLAEQAERYDDMAAAMKNVTELNEPLSNEERNLLSVAYKNVVGARRSSWRVISSIEQKTSADGNEKKIEMVRAYREKIEKELEAVCQDVLSLLDNYLIKNCSETQYESKVFYLKMKGDYYRYLAEVATGEKRATVVESSEKAYSEAHEISKEHMQPTHPIRLGLALNYSVFYYEIQNAPEQACHLAKTAFDDAIAELDTLNEDSYKDSTLIMQLLRDNLTLWTSDQQDDDGGEGNN
binding (ANO1-VC (human)): no binding | binding (VC-ANO1 (human)): binds
